The text below walks through data of the supplement of paper PMC12819154, “High-throughput peptide-centric local stability assay extends protein–ligand identification to membrane proteins, tissues and bacteria” (Nature Structural & Molecular Biology, 2025).

By UniProt entry, the sequences of proteins in these tests, tags left out. Where a name states a change or a piece, a line headed by the entry shows the natural chain unless it says otherwise.
UniProt Q9UPU7: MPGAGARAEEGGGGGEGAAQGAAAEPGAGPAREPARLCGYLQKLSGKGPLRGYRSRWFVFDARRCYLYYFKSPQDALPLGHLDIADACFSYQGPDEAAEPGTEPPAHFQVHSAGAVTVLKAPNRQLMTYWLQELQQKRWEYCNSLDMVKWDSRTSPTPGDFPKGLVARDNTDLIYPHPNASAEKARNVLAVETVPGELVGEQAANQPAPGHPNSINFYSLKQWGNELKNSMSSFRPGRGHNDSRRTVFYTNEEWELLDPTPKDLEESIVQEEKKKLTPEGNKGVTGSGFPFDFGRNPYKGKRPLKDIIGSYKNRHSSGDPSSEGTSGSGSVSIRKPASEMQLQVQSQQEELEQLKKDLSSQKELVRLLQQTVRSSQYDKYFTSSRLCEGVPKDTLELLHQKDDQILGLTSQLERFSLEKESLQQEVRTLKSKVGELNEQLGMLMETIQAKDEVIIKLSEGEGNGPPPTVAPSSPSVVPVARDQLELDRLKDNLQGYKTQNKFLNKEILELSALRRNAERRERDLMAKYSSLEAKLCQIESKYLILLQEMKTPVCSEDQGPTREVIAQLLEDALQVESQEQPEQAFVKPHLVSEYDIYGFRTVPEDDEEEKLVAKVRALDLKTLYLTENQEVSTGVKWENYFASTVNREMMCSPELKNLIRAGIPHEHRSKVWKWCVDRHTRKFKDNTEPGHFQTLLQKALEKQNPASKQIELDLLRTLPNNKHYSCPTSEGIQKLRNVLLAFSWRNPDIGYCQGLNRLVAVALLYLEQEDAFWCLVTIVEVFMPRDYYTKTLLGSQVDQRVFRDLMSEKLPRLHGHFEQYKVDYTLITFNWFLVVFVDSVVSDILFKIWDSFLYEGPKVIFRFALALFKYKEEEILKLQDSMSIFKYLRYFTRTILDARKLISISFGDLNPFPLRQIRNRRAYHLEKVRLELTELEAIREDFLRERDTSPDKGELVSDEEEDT
UniProt Q9Y2U8: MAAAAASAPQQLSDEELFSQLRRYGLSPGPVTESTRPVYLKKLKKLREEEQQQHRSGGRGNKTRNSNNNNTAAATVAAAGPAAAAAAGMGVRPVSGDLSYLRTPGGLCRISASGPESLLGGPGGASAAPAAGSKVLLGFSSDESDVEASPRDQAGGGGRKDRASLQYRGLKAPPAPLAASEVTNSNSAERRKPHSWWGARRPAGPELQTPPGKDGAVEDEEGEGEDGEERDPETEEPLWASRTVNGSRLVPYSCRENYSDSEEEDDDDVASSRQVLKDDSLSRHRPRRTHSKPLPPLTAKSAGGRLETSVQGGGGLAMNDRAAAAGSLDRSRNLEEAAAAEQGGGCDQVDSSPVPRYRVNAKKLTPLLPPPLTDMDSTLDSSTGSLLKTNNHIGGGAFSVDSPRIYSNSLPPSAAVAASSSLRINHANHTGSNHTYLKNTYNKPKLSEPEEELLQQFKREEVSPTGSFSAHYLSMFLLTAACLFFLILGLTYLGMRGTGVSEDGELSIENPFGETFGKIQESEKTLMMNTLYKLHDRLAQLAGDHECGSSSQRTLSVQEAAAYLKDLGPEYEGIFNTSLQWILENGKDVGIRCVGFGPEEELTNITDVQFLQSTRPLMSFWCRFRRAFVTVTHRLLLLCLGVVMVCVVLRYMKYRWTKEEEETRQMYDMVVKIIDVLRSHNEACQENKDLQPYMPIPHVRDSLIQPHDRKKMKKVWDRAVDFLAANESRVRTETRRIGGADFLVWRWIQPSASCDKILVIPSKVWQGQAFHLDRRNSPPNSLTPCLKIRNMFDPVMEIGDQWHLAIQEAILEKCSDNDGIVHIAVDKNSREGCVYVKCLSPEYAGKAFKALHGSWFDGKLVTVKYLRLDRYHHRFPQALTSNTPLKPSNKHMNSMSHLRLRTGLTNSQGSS
UniProt Q9UPN7: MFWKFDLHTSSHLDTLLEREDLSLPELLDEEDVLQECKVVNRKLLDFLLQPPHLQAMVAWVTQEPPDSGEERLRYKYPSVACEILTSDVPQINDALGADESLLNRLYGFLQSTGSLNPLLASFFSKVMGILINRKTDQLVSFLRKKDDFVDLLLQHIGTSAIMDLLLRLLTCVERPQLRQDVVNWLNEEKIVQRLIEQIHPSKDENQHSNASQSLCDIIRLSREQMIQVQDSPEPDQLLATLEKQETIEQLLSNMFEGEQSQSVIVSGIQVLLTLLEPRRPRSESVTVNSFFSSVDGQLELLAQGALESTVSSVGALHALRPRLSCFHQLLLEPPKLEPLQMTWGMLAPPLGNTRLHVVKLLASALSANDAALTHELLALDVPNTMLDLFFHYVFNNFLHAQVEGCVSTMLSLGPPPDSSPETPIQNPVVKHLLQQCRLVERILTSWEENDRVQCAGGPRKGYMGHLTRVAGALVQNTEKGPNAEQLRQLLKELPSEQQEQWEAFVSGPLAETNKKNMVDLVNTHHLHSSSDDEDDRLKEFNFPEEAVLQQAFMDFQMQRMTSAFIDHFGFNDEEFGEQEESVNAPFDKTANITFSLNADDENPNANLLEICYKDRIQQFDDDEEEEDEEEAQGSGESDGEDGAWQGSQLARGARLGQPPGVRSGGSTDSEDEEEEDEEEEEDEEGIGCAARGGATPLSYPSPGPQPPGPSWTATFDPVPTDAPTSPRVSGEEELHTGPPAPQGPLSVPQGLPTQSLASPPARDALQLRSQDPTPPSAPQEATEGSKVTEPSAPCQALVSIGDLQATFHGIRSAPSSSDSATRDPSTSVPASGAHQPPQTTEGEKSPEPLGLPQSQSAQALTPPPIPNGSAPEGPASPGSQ
UniProt Q9UPW0: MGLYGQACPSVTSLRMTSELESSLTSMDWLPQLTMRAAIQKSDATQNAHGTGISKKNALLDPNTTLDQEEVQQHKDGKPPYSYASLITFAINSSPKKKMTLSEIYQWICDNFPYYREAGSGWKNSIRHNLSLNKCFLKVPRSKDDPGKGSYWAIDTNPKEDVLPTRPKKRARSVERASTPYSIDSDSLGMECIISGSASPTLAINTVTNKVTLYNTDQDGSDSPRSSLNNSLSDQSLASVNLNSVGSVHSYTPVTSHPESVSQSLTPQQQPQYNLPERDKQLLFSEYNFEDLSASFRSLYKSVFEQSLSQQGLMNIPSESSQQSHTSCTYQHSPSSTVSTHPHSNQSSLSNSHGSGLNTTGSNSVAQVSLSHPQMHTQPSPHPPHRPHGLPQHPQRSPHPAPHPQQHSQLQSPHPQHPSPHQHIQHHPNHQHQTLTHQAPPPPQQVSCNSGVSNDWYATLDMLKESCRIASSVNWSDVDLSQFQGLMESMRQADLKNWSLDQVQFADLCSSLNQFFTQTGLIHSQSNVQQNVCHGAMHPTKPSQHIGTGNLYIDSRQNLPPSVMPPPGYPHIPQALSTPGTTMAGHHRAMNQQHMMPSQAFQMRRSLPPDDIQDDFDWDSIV
UniProt Q9Y255: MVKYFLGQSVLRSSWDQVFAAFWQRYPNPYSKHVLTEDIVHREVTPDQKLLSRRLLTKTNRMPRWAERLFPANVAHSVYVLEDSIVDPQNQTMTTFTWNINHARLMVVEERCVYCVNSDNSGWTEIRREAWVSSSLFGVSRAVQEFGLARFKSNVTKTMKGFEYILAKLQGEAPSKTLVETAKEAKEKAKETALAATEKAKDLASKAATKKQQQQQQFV
UniProt Q9UMZ2: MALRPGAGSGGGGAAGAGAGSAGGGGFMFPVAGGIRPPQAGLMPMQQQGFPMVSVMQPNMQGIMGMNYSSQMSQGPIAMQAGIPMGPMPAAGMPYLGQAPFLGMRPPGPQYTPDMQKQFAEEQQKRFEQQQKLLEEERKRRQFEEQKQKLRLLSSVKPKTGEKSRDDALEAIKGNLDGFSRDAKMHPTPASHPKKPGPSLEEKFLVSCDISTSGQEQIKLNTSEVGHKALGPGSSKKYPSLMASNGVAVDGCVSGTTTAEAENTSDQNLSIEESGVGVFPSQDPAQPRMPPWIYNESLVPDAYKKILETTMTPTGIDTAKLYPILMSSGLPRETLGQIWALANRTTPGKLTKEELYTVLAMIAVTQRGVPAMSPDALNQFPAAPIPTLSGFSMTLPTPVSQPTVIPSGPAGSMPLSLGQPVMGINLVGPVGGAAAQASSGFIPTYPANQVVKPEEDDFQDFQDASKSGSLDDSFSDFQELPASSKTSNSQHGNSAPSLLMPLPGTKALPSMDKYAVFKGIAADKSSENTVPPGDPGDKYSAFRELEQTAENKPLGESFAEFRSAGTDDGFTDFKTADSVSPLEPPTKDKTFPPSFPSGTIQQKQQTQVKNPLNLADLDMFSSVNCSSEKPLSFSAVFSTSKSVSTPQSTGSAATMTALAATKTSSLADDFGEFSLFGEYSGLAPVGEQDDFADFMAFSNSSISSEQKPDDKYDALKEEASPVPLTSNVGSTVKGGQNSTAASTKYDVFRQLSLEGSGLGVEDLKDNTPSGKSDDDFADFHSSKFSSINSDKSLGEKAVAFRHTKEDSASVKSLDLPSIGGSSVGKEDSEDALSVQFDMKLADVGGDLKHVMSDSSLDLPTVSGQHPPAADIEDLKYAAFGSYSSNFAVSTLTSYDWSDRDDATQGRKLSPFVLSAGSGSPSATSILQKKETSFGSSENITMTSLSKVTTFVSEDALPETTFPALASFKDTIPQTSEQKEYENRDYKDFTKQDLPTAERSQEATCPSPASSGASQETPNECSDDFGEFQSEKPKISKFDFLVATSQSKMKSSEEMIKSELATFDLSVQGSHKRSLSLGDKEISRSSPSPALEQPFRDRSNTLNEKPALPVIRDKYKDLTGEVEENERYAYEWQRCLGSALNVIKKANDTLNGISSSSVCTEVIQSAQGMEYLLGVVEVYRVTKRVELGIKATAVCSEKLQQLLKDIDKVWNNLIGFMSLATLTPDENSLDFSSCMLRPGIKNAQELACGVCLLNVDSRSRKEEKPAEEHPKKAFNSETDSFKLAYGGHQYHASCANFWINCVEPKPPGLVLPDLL
UniProt Q9UKB3: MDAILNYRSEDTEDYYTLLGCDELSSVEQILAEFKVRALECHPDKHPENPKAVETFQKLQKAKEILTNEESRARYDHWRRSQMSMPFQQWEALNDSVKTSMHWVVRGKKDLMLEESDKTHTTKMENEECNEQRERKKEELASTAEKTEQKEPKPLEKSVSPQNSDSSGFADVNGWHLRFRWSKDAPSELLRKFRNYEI
UniProt Q9UMR2: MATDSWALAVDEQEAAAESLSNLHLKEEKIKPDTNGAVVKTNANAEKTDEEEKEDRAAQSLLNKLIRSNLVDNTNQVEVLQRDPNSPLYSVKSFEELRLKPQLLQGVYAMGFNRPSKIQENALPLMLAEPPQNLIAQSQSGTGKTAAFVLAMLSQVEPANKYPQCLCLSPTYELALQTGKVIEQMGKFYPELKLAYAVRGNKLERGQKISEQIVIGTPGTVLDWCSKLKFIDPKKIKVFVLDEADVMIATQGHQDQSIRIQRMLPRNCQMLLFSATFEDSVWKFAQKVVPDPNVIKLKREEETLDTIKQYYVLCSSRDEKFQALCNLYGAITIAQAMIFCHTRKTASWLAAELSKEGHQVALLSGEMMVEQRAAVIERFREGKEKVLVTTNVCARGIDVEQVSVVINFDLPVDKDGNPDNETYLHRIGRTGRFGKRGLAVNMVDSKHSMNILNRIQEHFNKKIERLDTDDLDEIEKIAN
UniProt Q9UMX5: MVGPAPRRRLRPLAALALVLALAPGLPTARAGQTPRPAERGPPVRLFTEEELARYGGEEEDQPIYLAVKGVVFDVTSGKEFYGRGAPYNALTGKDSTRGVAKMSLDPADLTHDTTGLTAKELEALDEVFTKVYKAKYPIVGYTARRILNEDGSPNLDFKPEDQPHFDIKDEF
UniProt Q9Y281, whole entry: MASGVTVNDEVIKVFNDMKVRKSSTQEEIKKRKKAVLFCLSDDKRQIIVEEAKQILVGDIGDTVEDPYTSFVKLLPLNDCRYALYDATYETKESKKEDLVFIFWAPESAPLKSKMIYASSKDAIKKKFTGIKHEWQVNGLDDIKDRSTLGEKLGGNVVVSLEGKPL
UniProt Q9UMR5: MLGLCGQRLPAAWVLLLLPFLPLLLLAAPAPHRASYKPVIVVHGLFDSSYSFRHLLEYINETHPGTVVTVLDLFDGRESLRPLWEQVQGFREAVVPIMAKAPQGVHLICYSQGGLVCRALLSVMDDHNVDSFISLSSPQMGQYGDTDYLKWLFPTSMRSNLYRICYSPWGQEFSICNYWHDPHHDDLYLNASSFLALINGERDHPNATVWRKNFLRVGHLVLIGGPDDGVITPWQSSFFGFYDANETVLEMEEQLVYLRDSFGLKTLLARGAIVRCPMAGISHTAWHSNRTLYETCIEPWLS
UniProt Q9Y2Z0: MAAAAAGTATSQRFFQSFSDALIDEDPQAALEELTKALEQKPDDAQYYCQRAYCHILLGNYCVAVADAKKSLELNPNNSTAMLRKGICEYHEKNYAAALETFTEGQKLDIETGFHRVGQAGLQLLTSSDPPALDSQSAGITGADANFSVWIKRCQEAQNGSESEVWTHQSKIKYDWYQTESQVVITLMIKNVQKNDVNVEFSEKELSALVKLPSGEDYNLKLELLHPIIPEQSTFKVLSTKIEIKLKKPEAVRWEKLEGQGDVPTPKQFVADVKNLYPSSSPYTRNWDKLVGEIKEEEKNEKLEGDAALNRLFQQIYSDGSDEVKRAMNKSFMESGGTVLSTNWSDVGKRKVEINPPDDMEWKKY

Some of the results follow. Most values lie at the level of the controls, where differences are scatter.

Compound in this assay: CN[C@@H]1C[C@H]2O[C@@](C)([C@@H]1OC)n1c3ccccc3c3c4c(c5c6ccccc6n2c5c31)C(=O)NC4 [staurosporine]
In words: log2 fold change of tryptic peptide abundance, ligand vs vehicle (limited proteolysis) (log2 ratio); higher = more trypsin-susceptible (destabilized). Particulars: ligand concentration: 20 uM; sample: K562 cleared lysate; digestion: 4 min, 22 C (HT-PELSA RT4min, Orbitrap Astral).
Regarding “UniProt Q9ULJ3 (peptide sequence: DSSVVYAK, peptide start residue: 211)”, the log2 fold change is -0.333. Regarding “TBC1D2B (peptide sequence: EILELSALR, peptide start residue: 506) (UniProt Q9UPU7)”, the log2 fold change was -0.157. Take “LEMD3 (peptide sequence: LREEEQQQHR, peptide start residue: 46) (UniProt Q9Y2U8)”: the log2 fold change was 0.426.

Consider “UniProt Q9UPN7 (peptide sequence: VMGILINRK, peptide start residue: 127)”, for which the log2 fold change was determined as 0.435.

Regarding “UniProt Q9Y3A3 (peptide sequence: ECPAIDYTR, peptide start residue: 118)”, the log2 fold change is -0.14. As to “FOXJ3 (peptide sequence: HNLSLNKCFLK, peptide start residue: 128) (UniProt Q9UPW0)”, the log2 fold change is -1.29. For “STX8 (peptide sequence: LLLASFKNEGAEPDLIR, peptide start residue: 92) (UniProt Q9UNK0)”, the log2 fold change is -0.355.

As to “ANKRD26 (peptide sequence: NLLNANLSEDEKEQLKK, peptide start residue: 1318) (UniProt Q9UPS8)”, the log2 fold change is 0.311. Consider “UniProt Q9UPY6 (peptide sequence: FYTDPSYFFDLWKEK, peptide start residue: 149)”, for which the log2 fold change was -0.102. For “PRELID1 (peptide sequence: AKETALAATEK, peptide start residue: 189) (UniProt Q9Y255)” the value was 0.481; for “UniProt Q9Y283 (peptide sequence: GSPGGSLGGALQK, peptide start residue: 660)”, -0.00239; for “NSFL1C (peptide sequence: FYAGGSER, peptide start residue: 94) (UniProt Q9UNZ2)”, -0.105. For the target “UniProt Q9ULD4 (peptide sequence: SLLLPFEDR, peptide start residue: 1063)”, the log2 fold change was -0.287. With “KLHDC2 (peptide sequence: SGHVAVSDGR, peptide start residue: 33) (UniProt Q9Y2U9)”, the log2 fold change amounted to 0.317. Regarding “UniProt Q9UKV0 (peptide sequence: IQSIWSR, peptide start residue: 682)”, the log2 fold change is -0.241.

For the target “UNC13A (peptide sequence: LKDHMVR, peptide start residue: 1335) (UniProt Q9UPW8)”, the log2 fold change is 0.265. As for “AGTPBP1 (peptide sequence: INAEPSESDTAR, peptide start residue: 28) (UniProt Q9UPW5)”, the log2 fold change is -0.147. Take “GSTK1 (peptide sequence: MELLAHLLGEK, peptide start residue: 203) (UniProt Q9Y2Q3)”: the log2 fold change came out at 0.281.

For the target “MACF1 (peptide sequence: LRLEEEVEACKAR, peptide start residue: 1016) (UniProt Q9UPN3)”, the log2 fold change was -1.17. As for “UniProt Q9UMZ2 (peptide sequence: SELATFDLSVQGSHKR, peptide start residue: 1057)”, the log2 fold change was -0.2. The figure for “DMTF1 (peptide sequence: GIKDATEIIFEMSKDER, peptide start residue: 176) (UniProt Q9Y222)” is 0.736. Consider “FNDC3A (peptide sequence: DKMSSPPSSPQK, peptide start residue: 199) (UniProt Q9Y2H6)”, for which the log2 fold change was -0.776.

Turning to “DNAJC12 (peptide sequence: DLMLEESDKTHTTK, peptide start residue: 110) (UniProt Q9UKB3)”, the log2 fold change is -0.161. As to “BSN (peptide sequence: HREEEQLLVQR, peptide start residue: 2404) (UniProt Q9UPA5)”, the log2 fold change was found to be 0.301.

Consider “UniProt Q9Y2U5 (peptide sequence: AYGALTENVTR, peptide start residue: 451)”, for which the log2 fold change is -0.427. Take “DDX19B (peptide sequence: LKPQLLQGVYAMGFNRPSK, peptide start residue: 98) (UniProt Q9UMR2)”: the log2 fold change came to 0.181. For “KMT2B (peptide sequence: ATSLELPMAMR, peptide start residue: 2555) (UniProt Q9UMN6)” the value was 0.286; for “MCTS1 (peptide sequence: EGPFYPTLR, peptide start residue: 75) (UniProt Q9ULC4)”, 0.271; for “NENF (peptide sequence: LFTEEELAR, peptide start residue: 46) (UniProt Q9UMX5)”, -0.316. Regarding “CFL2 (peptide sequence: ESKKEDLVFIFWAPESAPLK, peptide start residue: 93) (UniProt Q9Y281)”, the log2 fold change was found to be 0.115. In the case of “TPX2 (peptide sequence: KHPSSPAR, peptide start residue: 289) (UniProt Q9ULW0)”, the log2 fold change was determined as 0.193. As to “CDC14A (peptide sequence: MALSPSATAK, peptide start residue: 450) (UniProt Q9UNH5)”, the log2 fold change was 0.243. As to “GNE (peptide sequence: ILLAGCPSYDKLLSAK, peptide start residue: 178) (UniProt Q9Y223)”, the log2 fold change was -0.492. For “UniProt Q9UQ16 (peptide sequence: MGTPHLQK, peptide start residue: 272)”, the log2 fold change was found to be 0.193. As for “PPT2 (peptide sequence: WLFPTSMR, peptide start residue: 151) (UniProt Q9UMR5)”, the log2 fold change was -0.085.

On to “SUGT1 (peptide sequence: KGICEYHEK, peptide start residue: 85) (UniProt Q9Y2Z0)”, for which the log2 fold change was 0.301.
